Reference: the supplement of paper PMC10735217
The list shows a part of the results. Single values are uncertain here, since repeats match poorly.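 In a drug-repurposing library screen, luminescence reads luciferase driven by eight TEAD-binding elements, stably integrated into human kidney-derived cells. Compounds scoring over five robust Z scores above the plate mean are called hits.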

System: HEK293A TEAD-LUC reporter
Test: TEAD-luciferase reporter activity (YAP activation), robust Z score vs plate; higher = stronger YAP/TEAD activation
Conditions: 24 h

SMILES	TEAD-luciferase reporter activity (compound concentration: 200 nM)	TEAD-luciferase reporter activity (compound concentration: 2 uM)	TEAD-luciferase reporter activity (compound concentration: 10 uM)
Clc1ccc(C(Cn2ccnc2)OCc2c(Cl)cccc2Cl)c(Cl)c1 (stereo not drawn) [isoconazole]	inactive: -0.645	inactive: 0.51	inactive: 0.501
CCN(CC)CCCNc1ccnc2cc(Cl)ccc12	inactive: -0.763	inactive: 0.154	inactive: 4.1
CO/N=C(\C(=O)N[C@@H]1C(=O)N2C(C(=O)OC(C)OC(C)=O)=C(COC(N)=O)CS[C@H]12)c1ccco1 (stereo partly drawn) [Cefuroxime axetile]	–	inactive: -0.409	–
CO/N=C(\C(=O)N[C@@H]1C(=O)N2C(C(=O)OC(C)OC(C)=O)=C(COC(N)=O)CS[C@H]12)c1ccco1 (stereo partly drawn) [Cefuroxime Axetil]	inactive: -0.0935	–	inactive: 0.365
C[C@H]1[C@H](C)CC[C@]2(C(=O)O)CC[C@]3(C)C(=CC[C@@H]4[C@@]5(C)CC[C@H](O)C(C)(C)[C@@H]5CC[C@]43C)[C@H]12	active: 7.67	inactive: -0.254	inactive: -0.348
O=C(O)CC[C@H](NC(=O)[C@@H](CSC1OC(=O)c2ccccc21)Cc1ccccc1)C(=O)Nc1ccccc1 (stereo partly drawn)	inactive: -2.4	inactive: 1.7	inactive: 3.55
N=C(N)Nc1ncc(Cl)c2ccc(-c3cccc(C(=O)O)c3)cc12	inactive: -0.0239	inactive: -0.782	inactive: 1.02
COc1ccccc1[C@H](c1cccc2ccccc12)[C@@](C)(C#N)C(=O)N1CCC(c2cccc(C(F)(F)F)c2)CC1	inactive: -0.266	inactive: 0.103	inactive: 4.41
COc1ccnc2c1CCCCC2S(=O)c1nc2ccccc2[nH]1 (stereo not drawn)	inactive: -1.32	inactive: 0.176	inactive: 0.157
CC(C)CC(=O)N[C@@H](CCCCNC(=O)c1ccc(C(=N)N)cc1)CC(=O)O	inactive: -0.303	inactive: -0.781	inactive: 0.292
Cc1cc(C)c2c(c1)[C@@H](N(Cc1cc(C(F)(F)F)cc(C(F)(F)F)c1)c1nnn(C)n1)CCCN2C[C@H]1CC[C@H](C(=O)O)CC1 [evacetrapib]	inactive: 0.271	inactive: -0.986	inactive: -0.616
O=C(O)CP(=O)(O)O [fosfonet sodium]	inactive: 0.586	inactive: -1.27	inactive: -0.00988
CC(=O)Oc1ccc(C(=C2CCCCC2)c2ccc(OC(C)=O)cc2)cc1 [cyclofenil]	inactive: -0.00172	inactive: -1.64	inactive: -0.698
COc1nc2nc(C(=O)c3ccccc3)cn2c2c1CCCC2	inactive: 2.21	inactive: -1.34	inactive: 1.81
Cn1c(=O)c2[nH]c(Cc3ccc(Cl)cc3)nc2n(C)c1=O	inactive: -2.62	inactive: 0.648	inactive: 3.46
Cc1nc2ccccc2c(-c2ccc3c(c2)CCCO3)c1C(OC(C)(C)C)C(=O)O (stereo not drawn)	inactive: 0.149	inactive: 1.58	inactive: -2.01
O=C(O)/C=C/c1ccc(Cn2ccnc2)cc1 [ozagrel]	–	inactive: -0.0265	–
O=C(O)/C=C/c1ccc(Cn2ccnc2)cc1	inactive: -1.19	–	inactive: -0.0937
COc1cc2ncnc(N3CCN(C(=O)OCC(C)C)CC3)c2cc1OC	inactive: -0.25	inactive: -2.28	inactive: 1.93
CN1CCC(=C2c3ccccc3CCc3sccc32)CC1 [pizotifen]	–	inactive: -0.11	–
CN1CCC(=C2c3ccccc3CCc3sccc32)CC1 [Pizotyline]	inactive: -1.05	–	inactive: -0.222
CC(C)[C@@H]1NC(=O)[C@H](CCCCN)NC(=O)[C@@H](Cc2c[nH]c3ccccc23)NC(=O)[C@H](Cc2ccc(O)cc2)NC(=O)[C@H](C)N(C)C(=O)[C@H](Cc2ccccc2)NC1=O [Seglitide]	inactive: -0.825	inactive: 0.238	inactive: -3
CCN(CC)CC(O)CNc1c2ccc(Cl)cc2nc2ccc(OC)cc12 (stereo not drawn)	inactive: -0.853	active: 7.3	inactive: -0.0642
CSCC[C@H](NC(=O)[C@H](Cc1ccc(OS(=O)(=O)O)cc1)NC(=O)[C@@H](N)CC(=O)O)C(=O)NCC(=O)N[C@@H](Cc1c[nH]c2ccccc12)C(=O)N[C@@H](CCSC)C(=O)N[C@@H](CC(=O)O)C(=O)N[C@@H](Cc1ccccc1)C(N)=O [Sincalide]	inactive: 0.408	inactive: -1.08	inactive: 3.94
CC(=N)NCCSCC[C@H](N)C(=O)O	inactive: -0.721	inactive: 0.525	inactive: -1.68
CO[C@H]1/C=C/O[C@@]2(C)Oc3c(C)c(O)c4c(O)c(c(N5CCN(Cc6c(C)cc(C)cc6C)CC5)c(O)c4c3C2=O)NC(=O)/C(C)=C\C=C\[C@H](C)[C@H](O)[C@@H](C)[C@@H](O)[C@@H](C)[C@H](OC(C)=O)[C@@H]1C	inactive: -1.29	inactive: -1.21	inactive: -0.605
CC(=O)Nc1ccc(S(=O)(=O)Nc2ccc([N+](=O)[O-])cc2)cc1	inactive: -2.14	inactive: -1.1	inactive: -2.65

SMILES	TEAD-luciferase reporter activity (compound concentration: 200 nM)	TEAD-luciferase reporter activity (compound concentration: 2 uM)	TEAD-luciferase reporter activity (compound concentration: 10 uM)
CC1CCc2c(N3CCC(O)CC3)c(F)cc3c(=O)c(C(=O)O)cn1c23 (stereo not drawn) [nadifloxacin]	inactive: -0.332	inactive: 1.26	inactive: -0.488
COc1ccc(-c2ccc(OCc3cc(C(=O)NS(=O)(=O)c4ccccc4C)oc3C)cc2)nc1	inactive: -0.387	inactive: -0.224	inactive: 2.49
[Ca+2] [Calcium Bromide]	inactive: -0.549	–	inactive: 1.64
CO[C@H]1C[C@@H](O[C@H]2[C@H](C)O[C@H](O[C@@H]3/C(C)=C/CC4C[C@@H](C[C@]5(C=C[C@H](C)[C@@H](C6CCCCC6)O5)O4)OC(=O)[C@@H]4C=C(C)[C@@H](O)[C@H]5OC/C(=C\C=C\[C@@H]3C)[C@]54O)C[C@@H]2OC)O[C@@H](C)[C@@H]1O	inactive: -1.56	inactive: -0.908	inactive: 2.41
CNC(C(=O)O)C(O)c1ccc(O)c(O)c1 (stereo not drawn)	inactive: -0.00875	inactive: -2.35	inactive: -0.112
CC(C)(CO)c1cc2cc(NC(=O)C3(c4ccc5c(c4)OC(F)(F)O5)CC3)c(F)cc2n1C[C@@H](O)CO	inactive: 0.825	inactive: -1.24	active: 6.64
CC1CCC(C(C)C)C(OC(=O)c2cccnc2)C1 (stereo not drawn)	inactive: 1.86	inactive: -0.994	inactive: 0.0306
O=C1c2ccccc2OCN1CCO	inactive: 0.206	inactive: -0.614	inactive: 0.969
Clc1ccc(OCC2=NCCc3ccccc32)cc1	inactive: -0.448	inactive: 0.901	inactive: 0.803
c1cnn(-c2cc(-n3cccn3)ncn2)c1	inactive: -1.27	inactive: -0.768	inactive: 0.137
CCN(CC)CCNC(=O)c1ccc(NC(=O)COc2cc(C)ccc2C)cc1OC	inactive: -0.0382	inactive: -0.55	inactive: -0.731
CCNC(=O)/C=C/c1cccc(Br)c1	inactive: 0.353	–	inactive: 0.119
CCNC(=O)/C=C/c1cccc(Br)c1 [Cinromide]	–	inactive: 0.809	–
Cc1cc(=O)c(N)nn1-c1cccc(C(F)(F)F)c1	inactive: -0.51	inactive: 0.0512	inactive: 0.604
CN1CCN(C2=Cc3ccccc3/C(=C/C#N)c3ccc(Cl)cc32)CC1	inactive: 0.449	inactive: 2.02	inactive: 3.2
CCCOc1ccc(S(=O)(=O)N2CCCN(CCO)CC2)cc1-c1nc2c([nH]1)c1nncn1c(=O)n2CCC	inactive: -1.24	inactive: 0.316	inactive: -0.114
CCCCCCCCCCCCCCNC(=O)N[C@H](CC(=O)[O-])C[N+](C)(C)C	inactive: -2.43	inactive: 0.346	inactive: -0.289
Cc1ccc(S(=O)(=O)N(Cl)Cl)cc1	inactive: 0.31	inactive: -1.53	inactive: 0.186
O=[N+]([O-])c1ccc(-c2nc3ccccc3[nH]2)o1	inactive: 0.319	inactive: 0.0133	inactive: 2.71
O=C(NCc1ccccn1)Nc1nnc(-c2ccco2)o1	inactive: -0.859	inactive: -0.584	inactive: 1.17
Cc1cnc(NCCCN(C)C)c2c1[nH]c1ccc3cc(O)ccc3c12	inactive: -0.119	inactive: 1.74	inactive: -1.23
CN(C)Cc1ccc(CSCCN/C(=C/[N+](=O)[O-])NCc2ccc3c(c2)OCO3)o1	inactive: 0.778	inactive: -0.859	inactive: 1.22
CS(=O)(=O)Nc1ccc(C(O)CN2CCN(c3ccncc3)CC2)cc1 (stereo not drawn)	inactive: 0.921	inactive: -0.943	inactive: -1.08
CCC/N=C1\S/C(=C/c2ccc(OCC(O)CO)c(Cl)c2)C(=O)N1c1ccccc1C (stereo not drawn) [ponesimod]	inactive: 1.05	inactive: -0.864	inactive: 0.437
CC(NCCCCc1ccccc1)C(O)c1ccc2c(c1)CCS2 (stereo not drawn) [tibalosin]	inactive: -0.635	inactive: -0.777	inactive: 1.7
C[C@H](Oc1ccc(S(C)(=O)=O)cc1C(=O)N1CCN(c2ncc(C(F)(F)F)cc2F)CC1)C(F)(F)F [bitopertin]	inactive: -1.13	inactive: 0.355	inactive: -1.13
CC(C)(C)C(=O)NC1CCCN(c2nc3ncccc3o2)C1 (stereo not drawn)	inactive: 1.36	–	inactive: -0.364
